Results: publication PMC4990909
These are yes or no findings as the source states them, for the method shown. Binding seen in cells or lysates may run through a third protein. Some entries that bind do so weakly or less than the wild type.

The chains behind the UniProt entries cited, without tags or fusion partners.
UniProt Q1HFZ0: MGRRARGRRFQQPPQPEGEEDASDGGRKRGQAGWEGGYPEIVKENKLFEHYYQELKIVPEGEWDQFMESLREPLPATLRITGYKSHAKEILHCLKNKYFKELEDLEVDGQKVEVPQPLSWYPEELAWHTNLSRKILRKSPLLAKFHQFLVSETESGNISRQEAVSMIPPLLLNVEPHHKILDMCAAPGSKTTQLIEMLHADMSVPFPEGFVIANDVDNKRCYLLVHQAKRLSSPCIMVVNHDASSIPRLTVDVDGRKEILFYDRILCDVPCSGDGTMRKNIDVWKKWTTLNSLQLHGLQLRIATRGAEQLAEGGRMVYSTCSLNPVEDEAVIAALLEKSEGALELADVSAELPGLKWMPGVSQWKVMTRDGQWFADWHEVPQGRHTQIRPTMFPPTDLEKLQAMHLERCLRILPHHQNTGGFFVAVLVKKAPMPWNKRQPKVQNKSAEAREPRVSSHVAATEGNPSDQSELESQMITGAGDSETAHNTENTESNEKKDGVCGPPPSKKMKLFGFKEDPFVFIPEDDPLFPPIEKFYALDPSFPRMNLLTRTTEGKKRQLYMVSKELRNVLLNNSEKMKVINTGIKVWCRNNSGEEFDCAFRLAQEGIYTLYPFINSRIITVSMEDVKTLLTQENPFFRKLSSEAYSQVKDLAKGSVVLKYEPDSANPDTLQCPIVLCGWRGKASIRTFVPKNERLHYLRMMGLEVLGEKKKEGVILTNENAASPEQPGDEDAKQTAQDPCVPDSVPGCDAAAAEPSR
UniProt P62137: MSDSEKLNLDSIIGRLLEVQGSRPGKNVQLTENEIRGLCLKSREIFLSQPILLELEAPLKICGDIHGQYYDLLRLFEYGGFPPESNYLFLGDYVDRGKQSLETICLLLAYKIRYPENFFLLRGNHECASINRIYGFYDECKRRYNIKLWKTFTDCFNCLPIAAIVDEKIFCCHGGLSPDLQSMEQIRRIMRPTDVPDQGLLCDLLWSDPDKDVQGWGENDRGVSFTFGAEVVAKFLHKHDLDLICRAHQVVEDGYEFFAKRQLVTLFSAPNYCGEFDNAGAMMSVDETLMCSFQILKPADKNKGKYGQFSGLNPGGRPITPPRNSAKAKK

Legend:
[1] = molecular target: NOP2/Sun RNA methyltransferase (NSun2) (mouse (endogenous in LβT2)) (UniProt Q1HFZ0); assay: co-IP; endogenous proteins; LβT2 cells with 10 nM GnRHa for 8 h; cells cross-linked in 1% formaldehyde for 10 min; RIPA lysate incubated overnight with 5 μg anti-Nsun2 antibody and Protein G Dynabeads; blot with anti-PP1CA
[2] = molecular target: NOP2/Sun RNA methyltransferase (NSun2) (mouse (endogenous in LβT2)) (UniProt Q1HFZ0); assay: co-IP; endogenous proteins; LβT2 cells with 10 nM GnRHa for 4 h; cells cross-linked in 1% formaldehyde for 10 min; RIPA lysate incubated overnight with 5 μg anti-Nsun2 antibody and Protein G Dynabeads; blot with anti-PP1CA

binding [1]: binds
Substance: catalytic subunit of PP1α (PPP1CA) (from UniProt P62137 1-330) (enzyme)
binding [2]: no binding (condition: after 4 h of 10 nM GnRHa)
